Among the data in article PMC7819943, “Rice protein-binding microarrays: a tool to detect cis-acting elements near promoter regions in rice” are binding signal values, retold here.

This is one part of the list.

In this experiment the target is T1, OsSMF1 (Oryza sativa, UniProt Q6ZLB0 1-436).
T1 sequence: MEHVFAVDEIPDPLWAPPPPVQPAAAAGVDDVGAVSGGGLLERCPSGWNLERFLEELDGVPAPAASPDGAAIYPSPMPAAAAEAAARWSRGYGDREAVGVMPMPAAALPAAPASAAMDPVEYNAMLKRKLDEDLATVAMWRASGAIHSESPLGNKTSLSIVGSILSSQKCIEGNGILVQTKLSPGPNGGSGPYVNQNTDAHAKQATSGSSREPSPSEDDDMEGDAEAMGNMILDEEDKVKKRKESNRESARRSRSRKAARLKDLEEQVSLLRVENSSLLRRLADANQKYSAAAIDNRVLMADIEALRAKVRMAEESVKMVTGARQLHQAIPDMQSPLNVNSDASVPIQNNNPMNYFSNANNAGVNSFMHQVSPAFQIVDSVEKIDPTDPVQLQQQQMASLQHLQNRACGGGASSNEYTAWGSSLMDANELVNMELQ
In words: protein-binding microarray (RPBM); PBS, 2% BSA, 51.3 ng/ul salmon testes DNA, 50 uM zinc acetate, 200 nM TF, 25 C, 1 h; high values mean tight binding. The settings on record: protein: recombinant; tags: N-terminal polyhistidine and DsRed monomer fusion (pET32a); chain copies: 2; label: CyDye5-dUTP incorporated in the synthesized complementary strand; 3' TTTTT single-stranded linker to array surface; dsDNA, one strand shown. The method, boiled down:
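The binding signal is fluorescence intensity per array feature (arbitrary units). Readings came from an Axon 4000B scanner after a washed, 2% BSA-blocked, double-stranded custom Agilent array had been incubated for 1 h at 25 °C with 200 nM protein and 50 µM zinc acetate. The protein was a Ni–NTA-purified transcription factor fused N-terminally to polyhistidine and DsRed, expressed in E. coli BL21-CodonPlus.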
With “TTGGTGAGGGTTTGGGTTTGGTGGTGGAGTGGAGTGGAGTCGGAGTCACCTAGTGCAG”, the binding signal is 3220 fluorescence intensity (a.u.).

For the sequence “AGCAAAGCTGCCAGAGCACGGCACAGCACACAGGTGACGGCGGAGTCACCTAGTGCAG”, the binding signal is 3450 fluorescence intensity (a.u.). On to “CTCTAAATTTGTTCGTCCGTGTCGTCCAGGTCACCAAACTCGGAGTCACCTAGTGCAG”, for which the binding signal is 7370 fluorescence intensity (a.u.). For the sequence “AATGTCCAAATTCTTTGTATTATTATATGCCACATCTTAGCGGAGTCACCTAGTGCAG”, the binding signal is 4510 fluorescence intensity (a.u.). In the case of “GCTCCAAAACGAGTGGATTTGAGAAGAAGAGATGACGGGGCGGAGTCACCTAGTGCAG”, the binding signal was 5830 fluorescence intensity (a.u.).

“AAGTGCAGTTTTGTATTATTCACGTTCAACGTTTGACCACCGGAGTCACCTAGTGCAG”: the binding signal was 3280 fluorescence intensity (a.u.). To “TTTCCAACAGAGAAAAGAAATCTGCAAATGCCATACGGTGCGGAGTCACCTAGTGCAG” belongs 6390 fluorescence intensity (a.u.); to “GTGCATTGCCCGCGTGTCCGGCGTGCGCGAGGGTTTAAACCGGAGTCACCTAGTGCAG”, 3210 fluorescence intensity (a.u.). Turning to “AGTATCCGACGTGGCGAACACTGTCCACCTCATACCCGGGCGGAGTCACCTAGTGCAG”, the binding signal is 15000 fluorescence intensity (a.u.).

Take “CAGCCTCCGTAGCAGACACGTACAACGTACCGAGCAACCTCGGAGTCACCTAGTGCAG”: the binding signal is 3710 fluorescence intensity (a.u.). Consider “TGTCCAATCTGGGAAGTGGGAACGAAGGCATTGAGATGAGCGGAGTCACCTAGTGCAG”, for which the binding signal was 19800 fluorescence intensity (a.u.). With “TGCTACAGGTGACGATCAGTCGACACATCATGCCTTATCGCGGAGTCACCTAGTGCAG”, the binding signal was 7660 fluorescence intensity (a.u.).

Turning to “CCATGCCCAACTTCATCGTCAACAAGCAATGACCAAAGCGCGGAGTCACCTAGTGCAG”, the binding signal was 3200 fluorescence intensity (a.u.).

In the case of “ACCCTGACATGTTCCTGGTTGATCCCTCGGAATCGCCGCACGGAGTCACCTAGTGCAG”, the binding signal is 3200 fluorescence intensity (a.u.). The same measure for “GCGCGGAATTGGCCTGCAAAGCCACGGTCCCCACTACCACCGGAGTCACCTAGTGCAG”: 10000 fluorescence intensity (a.u.). Turning to “TTCATCAGCTGAGGTCGGCACTTGCTCATCTTTGCCGATTCGGAGTCACCTAGTGCAG”, the binding signal was 3180 fluorescence intensity (a.u.). In the case of “CACCCATCTCCTTGCCGGCCTCTCCACCCCGCCTCTTTCGCGGAGTCACCTAGTGCAG”, the binding signal was 19000 fluorescence intensity (a.u.). As to “GTATATATATATATATGTGTGTGTGTGTGTATATATATATCGGAGTCACCTAGTGCAG”, the binding signal was 4370 fluorescence intensity (a.u.). As to “CGCCAGCTGTACGTAGATCGCGTCACCCGAGCAGCGTTTCCGGAGTCACCTAGTGCAG”, the binding signal is 5200 fluorescence intensity (a.u.).

“TATCCGCACCACGCCACGCCACGACACCGAAACCGACTTCCGGAGTCACCTAGTGCAG”: the binding signal was 7350 fluorescence intensity (a.u.). “TGGGCCATCCTATCCATCCATCTCATCATCCCATCGCCCACGGAGTCACCTAGTGCAG”: the binding signal is 4300 fluorescence intensity (a.u.). As to “TCGTGAGGCGAGAGGGCACGTGACGCGGTGGGGCCCACCTCGGAGTCACCTAGTGCAG”, the binding signal was 3930 fluorescence intensity (a.u.). As for “TCTCGGCCGGCCCATTTCCTCCCCGTCAGCCCACAACCAGCGGAGTCACCTAGTGCAG”, the binding signal is 4610 fluorescence intensity (a.u.).

On to “GTTAGTGGTAGTAAGTAGTTAACCTTATGACGAAGTAATCCGGAGTCACCTAGTGCAG”, for which the binding signal is 3240 fluorescence intensity (a.u.). To “TTATTAACTTCTAACTTGACGATGCTCAGAGGCGACGCAACGGAGTCACCTAGTGCAG” belongs 32400 fluorescence intensity (a.u.). With “AATCAAGCCACTAAAACCCCAGCTAATAACTATAAGTACGCGGAGTCACCTAGTGCAG”, the binding signal was 17900 fluorescence intensity (a.u.). As for “CTATGACGGGTCGAAAACGGAACCCGTCAAAGATGAGTTACGGAGTCACCTAGTGCAG”, the binding signal was 18300 fluorescence intensity (a.u.). The same measure for “GAAAATGGTTTACACAACGTACCGCCATGTCAATGTTATCCGGAGTCACCTAGTGCAG”: 3370 fluorescence intensity (a.u.). As for “GTTTATTATTATTGCGTGTAACTGACATGTGGGCCCAATGCGGAGTCACCTAGTGCAG”, the binding signal was 4830 fluorescence intensity (a.u.). Regarding “CCAACGTCGAGGATCCTGTGAGCCAGCGCGTGCATGCCGCCGGAGTCACCTAGTGCAG”, the binding signal was 3370 fluorescence intensity (a.u.). To “ATTGAAACATGATCCGAGTCATAGCCTGACTGGAATTCTTCGGAGTCACCTAGTGCAG” belongs 5810 fluorescence intensity (a.u.); to “CCATATATTCCCTTGCACACACACGCAGTCAGGGCAGGCACGGAGTCACCTAGTGCAG”, 3770 fluorescence intensity (a.u.); to “AGTAGGGATGCTCTTAACGGATGACGAAGCTAAGCTTGCTCGGAGTCACCTAGTGCAG”, 3240 fluorescence intensity (a.u.). As for “GGCGGCGCAGCCCGTCGCCATGGAGGTGGACGGGAAGCCGCGGAGTCACCTAGTGCAG”, the binding signal was 3420 fluorescence intensity (a.u.). “GAATGGTGGCTACCTGGCGGTCAGATCATCGGAGCTAAGGCGGAGTCACCTAGTGCAG”: the binding signal was 4870 fluorescence intensity (a.u.). “GATTTCTTTCTGCCGTCATCTTCGAATATCCATGACTCGCCGGAGTCACCTAGTGCAG”: the binding signal was 3840 fluorescence intensity (a.u.). For “GTTTTGTGCCAGGAGTGATGATGAGGATGATGATTATGCACGGAGTCACCTAGTGCAG”, the binding signal was 3910 fluorescence intensity (a.u.). With “CTCACCACCACCGTCGTCATCGTCGTCGTCACCCTCCTCCCGGAGTCACCTAGTGCAG”, the binding signal was 6620 fluorescence intensity (a.u.). As for “CTCGGCTGTTGCGCCTTCGTTTTGCACCGAGGCTGTGCTACGGAGTCACCTAGTGCAG”, the binding signal is 55500 fluorescence intensity (a.u.).

Regarding “TCGGATCCGTTTTAGCATGCAATATGTAAAAGTGAAAAGACGGAGTCACCTAGTGCAG”, the binding signal was 3570 fluorescence intensity (a.u.). For the sequence “TTTGCATACGTGCATGCTTGATGACGTCATGCTGACGTGGCGGAGTCACCTAGTGCAG”, the binding signal is 63100 fluorescence intensity (a.u.). As for “GTTGAGGTCTCGCGCTCCCGTCCTCGTCTCGTCCTCTCCCCGGAGTCACCTAGTGCAG”, the binding signal was 21500 fluorescence intensity (a.u.).
